Results taken from publication PMC8467136 (Molecules, 2021).
Where a sequence shows no end group, the ends are not given.

Assay: general procedure: Fmoc solid-phase peptide synthesis; 2-chlorotrityl chloride resin
Conditions: oxidative folding step; for oxidative folding yield: HPLC peak area folded vs reduced

GFPCGESCVYGPCFTAAIGCSCKSKVCYKN
oxidative folding yield: 57.3%

GFPCGESCVYIPCFTAAIGCSCKSKVCYKN
difficulty met: negligible

GFPCGESCVYLPCFTAAIGCSCKSKVCYKN
oxidative folding yield: 44.7%

GIPCGESCVWGPCISSAIGCSCKSKVCYRN
oxidative folding yield: 51.6%

GIPCGESCVWGPCLTSAVGCSCKSKVCYRN
oxidative folding yield: 59.2%

GIPCGESCVWIPCISSAIGCSCKSKVCYRN
difficulty met: negligible

GIPCGESCVWIPCLTSAVGCSCKSKVCYRN
oxidative folding yield: 8.2%

GIPCGESCVWLPCISSAIGCSCKSKVCYRN
oxidative folding yield: 30.8%

GIPCGESCVWLPCLTSAVGCSCKSKVCYRN
oxidative folding yield: 27.3%

GTPCGESCVYGPCISGVIGCSCTDKVCYLN
oxidative folding yield: 50.5%

GTPCGESCVYIPCISGVIGCSCTDKVCYLN
difficulty met: negligible

GTPCGESCVYLPCISGVIGCSCTDKVCYLN
oxidative folding yield: 13.3%
